Tested on: edema
Experiment: Topical anti-inflammatory activity (croton oil ear edema)
Format: in vivo, Male mice of ddY-strain
Details: anti-inflammatory activity ratio (A) divided by thymolytic activity ratio (B)
Method: 0.9 % sodium chloride, 0.4 % Tween 80, 0.5 % carboxymethyl cellulose and 0.9 % benzyl alcohol are dissolved or suspended in distilled water, which is used as a suspending medium. The compounds to be tested are dissolved in a mixture of the suspending medium : pyridine : diethyl ether = 1 : 4 : 5 and mixed with equal volume of diethyl ether containing 10 % croton oil and the mixture is used as the test liquid. Commercially available felt having a thickness of 5 mm is cut in 7mm x 7 mm square and adhered to ring tweezers using alkyl-a-cyanoacrylate. The felt is soaked in the test liquid and the liquid is applied to the right ear of the mouse by rubbing it with the felt at a fixed pressure without anesthesia. The left ear is left untreated. At 5th hours after application, mice are killed and both of the ears are cut and weighed. The rate (%) of increase in the weight of right ear against that of left ear is calculated as the edema ratio. Edema ratios obtained on the test compounds are compared with those obtained on control and edema-repressing rate is obtained.

## 21-chloro-9α-fluoro-16β-mathyl-1,4-pregnadiene-11β,17α-diol-3,6,20-trione 17α-methyl carbonate [Example 2]
  R=A/B: 167

## 21-chloro-9α-fluoro-16β-methyl-1,4-pregnadiene-11β,17α-diol-3,6,20-trione 17a-ethyl carbonate [Example 4]
  R=A/B: 27
